# The supplement of paper PMC4604168 (melanoma cell lines)
# The other results are listed elsewhere or left out. Many values rest on one well or one pass, so single values are uncertain.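 The apoptosis fraction was the count of cleaved-PARP antibody-stained nuclei relative to all DNA-stained nuclei, imaged in 1,536-well plates. Screening doses were set so most cells survived, and baseline and induced cleaved-PARP levels vary greatly across cell lines.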
# What was measured:
# Experiment in all cases: cleaved PARP positive nuclei fraction relative to DMSO control; melanoma cells; higher = more apoptosis
# Details in all cases: library dose: low library concentration; 72 h
# MZ2-MEL = test system: MZ2-MEL
# MeWo = test system: MeWo
# RPMI7951 = test system: RPMI7951
# RVH-421 = test system: RVH-421
# SkMel28 = test system: SkMel28
# SkMel2 = test system: SkMel2
# SkMel30 = test system: SkMel30
# UACC62 = test system: UACC62
Structure (SMILES),cleaved PARP positive nuclei fraction (MZ2-MEL) [%],cleaved PARP positive nuclei fraction (MeWo) [%],cleaved PARP positive nuclei fraction (RPMI7951) [%],cleaved PARP positive nuclei fraction (RVH-421) [%],cleaved PARP positive nuclei fraction (SkMel28) [%],cleaved PARP positive nuclei fraction (SkMel2) [%],cleaved PARP positive nuclei fraction (SkMel30) [%],cleaved PARP positive nuclei fraction (UACC62) [%]
"CN(c1ncccc1CNc1nc(Nc2ccc3c(c2)CC(=O)N3)ncc1C(F)(F)F)S(C)(=O)=O + CS(=O)(=O)CCNCc1ccc(-c2ccc3ncnc(Nc4ccc(OCc5cccc(F)c5)c(Cl)c4)c3c2)o1 [lapatinib] (first compound 0.08 µM, partner dose 0.8 µM)",101,979,137,292,94.1,96.4,24,391
"C[C@@H](N)c1ccc(C(=O)Nc2ccnc3[nH]ccc23)cc1 + CCCS(=O)(=O)Nc1ccc(F)c(C(=O)c2c[nH]c3ncc(Cl)cc23)c1F [PLX4720] (first compound 0.4 µM, partner dose 0.08 µM)",50.2,56.7,135,254,55.4,122,111,521
"Cn1sc(=O)n(Cc2ccccc2)c1=O + CN1CCN(c2ccc3nc(-c4c(N)c5c(F)cccc5[nH]c4=O)[nH]c3c2)CC1 [Dovitinib] (first compound 0.4 µM, partner dose 0.1 µM)",157,114,113,173,247,80.4,58.9,115
"COc1ccc(C2=N[C@@H](c3ccc(Cl)cc3)[C@@H](c3ccc(Cl)cc3)N2C(=O)N2CCNC(=O)C2)c(OC(C)C)c1 [Nutlin-3] + Nc1cccc2c1CN(C1CCC(=O)NC1=O)C2=O [lenalidomide] (first compound 0.1 µM, partner dose 1 µM)",109,75.2,62.8,166,169,133,93.3,166
"C[C@]1(O)C[C@@H](c2nc(-c3ccc4ccc(-c5ccccc5)nc4c3)c3c(N)nccn32)C1 + NC1(c2ccc(-c3nc4ccn5c(=O)[nH]nc5c4cc3-c3ccccc3)cc2)CCC1 [MK2206] (first compound 0.4 µM, partner dose 0.4 µM)",89.7,119,40.1,35.2,98.8,68.3,33.7,127
"NC1(c2ccc(-c3nc4ccn5c(=O)[nH]nc5c4cc3-c3ccccc3)cc2)CCC1 + Clc1ccc(Nc2nnc(Cc3ccncc3)c3ccccc23)cc1 [vatalanib] (first compound 0.4 µM, partner dose 2 µM)",70.3,132,124,186,99.9,98,127,130
"COc1ccc(C2=N[C@@H](c3ccc(Cl)cc3)[C@@H](c3ccc(Cl)cc3)N2C(=O)N2CCNC(=O)C2)c(OC(C)C)c1 [Nutlin-3] + CN(c1ncccc1CNc1nc(Nc2ccc3c(c2)CC(=O)N3)ncc1C(F)(F)F)S(C)(=O)=O [PF562271] (first compound 0.1 µM, partner dose 0.08 µM)",49.8,108,60.4,102,68.2,115,51.2,78
"NC1(c2ccc(-c3nc4ccn5c(=O)[nH]nc5c4cc3-c3ccccc3)cc2)CCC1 + Cn1nnc2c(C(N)=O)ncn2c1=O [temozolomide] (first compound 0.4 µM, partner dose 2 µM)",75.8,566,108,404,259,72.4,366,163
"CCN(CC)CCNC(=O)c1c(C)[nH]c(/C=C2\C(=O)Nc3ccc(F)cc32)c1C [sunitinib] + Cc1nc(Nc2ncc(C(=O)Nc3c(C)cccc3Cl)s2)cc(N2CCN(CCO)CC2)n1 [dasatanib] (first compound 0.4 µM, partner dose 0.004 µM)",111,266,110,116,95,67.5,92.9,218
"NC(=O)c1ccc(N(C(N)=O)c2c(F)cccc2F)nc1-c1ccc(F)cc1F + Cc1cc(Nc2cc(N3CCN(C)CC3)nc(/C=C/c3ccccc3)n2)n[nH]1 [ENMD2076] (first compound 0.4 µM, partner dose 0.04 µM)",58.6,126,35.2,29,95.2,115,87.3,107
"Cn1sc(=O)n(Cc2ccccc2)c1=O + Nc1nc(F)nc2c1ncn2[C@@H]1O[C@H](CO)[C@@H](O)[C@@H]1O [fludarabine] (first compound 0.4 µM, partner dose 0.2 µM)",99.9,390,111,86.7,69,335,724,115
"C[C@@H](N)c1ccc(C(=O)Nc2ccnc3[nH]ccc23)cc1 + NC(=O)c1ccc(N(C(N)=O)c2c(F)cccc2F)nc1-c1ccc(F)cc1F [VX702] (first compound 0.4 µM, partner dose 0.4 µM)",49.4,242,44.2,373,48.6,138,29.6,97.1
"CCN(CC)CCNC(=O)c1c(C)[nH]c(/C=C2\C(=O)Nc3ccc(F)cc32)c1C [sunitinib] + Cn1c(Nc2ccc(C(F)(F)F)cc2)nc2cc(Oc3ccnc(-c4ncc(C(F)(F)F)[nH]4)c3)ccc21 [CHIR265] (first compound 0.4 µM, partner dose 0.08 µM)",72.7,249,96.9,196,394,43.6,119,303
"CC1(C)CCC(c2ccc(Cl)cc2)=C(CN2CCN(c3ccc(C(=O)NS(=O)(=O)c4ccc(N[C@H](CCN5CCOCC5)CSc5ccccc5)c(S(=O)(=O)C(F)(F)F)c4)cc3)CC2)C1 + Nc1ncn([C@H]2C[C@H](O)[C@@H](CO)O2)c(=O)n1 [decitabine] (first compound 0.4 µM, partner dose 0.1 µM)",158,446,65.8,105,42.9,180,98.7,69.2
"CC1(C)CCC(c2ccc(Cl)cc2)=C(CN2CCN(c3ccc(C(=O)NS(=O)(=O)c4ccc(N[C@H](CCN5CCOCC5)CSc5ccccc5)c(S(=O)(=O)C(F)(F)F)c4)cc3)CC2)C1 + Nc1ccn([C@@H]2O[C@H](CO)[C@@H](O)C2(F)F)c(=O)n1 [gemcitabine] (first compound 0.4 µM, partner dose 0.0004 µM)",473,172,76.7,189,83.1,52.9,123,94.4
"CCN(CC)CCNC(=O)c1c(C)[nH]c(/C=C2\C(=O)Nc3ccc(F)cc32)c1C [sunitinib] + Cn1c(=O)n(-c2ccc(C(C)(C)C#N)cc2)c2c3cc(-c4cnc5ccccc5c4)ccc3ncc21 [NVP-BEZ235] (first compound 0.4 µM, partner dose 0.004 µM)",99.5,179,74.5,55.5,258,96.1,86.5,534
"CCCCCCCCc1ccc(CCC(N)(CO)CO)cc1 [fingolimod] + Cc1nc(Nc2ncc(C(=O)Nc3c(C)cccc3Cl)s2)cc(N2CCN(CCO)CC2)n1 [dasatanib] (first compound 2 µM, partner dose 0.004 µM)",236,88.2,249,116,118,56.7,71.4,421

# Whole records, quoted from the list. Order of values: cleaved PARP positive nuclei fraction (MZ2-MEL) [%] | cleaved PARP positive nuclei fraction (MeWo) [%] | cleaved PARP positive nuclei fraction (RPMI7951) [%] | cleaved PARP positive nuclei fraction (RVH-421) [%] | cleaved PARP positive nuclei fraction (SkMel28) [%] | cleaved PARP positive nuclei fraction (SkMel2) [%] | cleaved PARP positive nuclei fraction (SkMel30) [%] | cleaved PARP positive nuclei fraction (UACC62) [%]
# NC(=O)c1ccc(N(C(N)=O)c2c(F)cccc2F)nc1-c1ccc(F)cc1F + Cc1cc(Nc2cc(N3CCN(C)CC3)nc(/C=C/c3ccccc3)n2)n[nH]1 [ENMD2076] (first compound 0.4 µM, partner dose 0.04 µM) is entered as 58.6 | 126 | 35.2 | 29 | 95.2 | 115 | 87.3 | 107
# COc1ccc(C2=N[C@@H](c3ccc(Cl)cc3)[C@@H](c3ccc(Cl)cc3)N2C(=O)N2CCNC(=O)C2)c(OC(C)C)c1 [Nutlin-3] + Nc1cccc2c1CN(C1CCC(=O)NC1=O)C2=O [lenalidomide] (first compound 0.1 µM, partner dose 1 µM) is entered as 109 | 75.2 | 62.8 | 166 | 169 | 133 | 93.3 | 166

# Following part:

Structure (SMILES),cleaved PARP positive nuclei fraction (MZ2-MEL) [%],cleaved PARP positive nuclei fraction (MeWo) [%],cleaved PARP positive nuclei fraction (RPMI7951) [%],cleaved PARP positive nuclei fraction (RVH-421) [%],cleaved PARP positive nuclei fraction (SkMel28) [%],cleaved PARP positive nuclei fraction (SkMel2) [%],cleaved PARP positive nuclei fraction (SkMel30) [%],cleaved PARP positive nuclei fraction (UACC62) [%]
"CC1(C)CCC(c2ccc(Cl)cc2)=C(CN2CCN(c3ccc(C(=O)NS(=O)(=O)c4ccc(N[C@H](CCN5CCOCC5)CSc5ccccc5)c(S(=O)(=O)C(F)(F)F)c4)cc3)CC2)C1 + Cc1ccc(Nc2nccc(N(C)c3ccc4c(C)n(C)nc4c3)n2)cc1S(N)(=O)=O [Pazopanib] (first compound 0.4 µM, partner dose 0.4 µM)",243,167,206,34.7,179,199,176,89.9
"COc1ccc(C2=N[C@@H](c3ccc(Cl)cc3)[C@@H](c3ccc(Cl)cc3)N2C(=O)N2CCNC(=O)C2)c(OC(C)C)c1 [Nutlin-3] + Clc1ccc(Nc2nnc(Cc3ccncc3)c3ccccc23)cc1 [vatalanib] (first compound 0.1 µM, partner dose 2 µM)",147,142,200,78.9,103,56.6,460,96.4
"CCCCCCCCc1ccc(CCC(N)(CO)CO)cc1 [fingolimod] + OCc1c[nH]c2ccccc12 [Indole-3-carbinol] (first compound 2 µM, partner dose 0.8 µM)",104,86.7,54.2,51.2,73.9,71.4,88.2,61.2
"COc1ccc(C2=N[C@@H](c3ccc(Cl)cc3)[C@@H](c3ccc(Cl)cc3)N2C(=O)N2CCNC(=O)C2)c(OC(C)C)c1 [Nutlin-3] + Nc1ncn([C@H]2C[C@H](O)[C@@H](CO)O2)c(=O)n1 [decitabine] (first compound 0.1 µM, partner dose 0.1 µM)",140,97.6,124,65.9,476,130,158,85.1
"Cn1cnc2c(F)c(Nc3ccc(Br)cc3Cl)c(C(=O)NOCCO)cc21 [selumetinib] + Nc1nc(F)nc2c1ncn2[C@@H]1O[C@H](CO)[C@@H](O)[C@@H]1O [fludarabine] (first compound 0.015 µM, partner dose 0.2 µM)",93.2,337,96,142,230,1090,1350,69.3
"CN(c1ncccc1CNc1nc(Nc2ccc3c(c2)CC(=O)N3)ncc1C(F)(F)F)S(C)(=O)=O + O=C(O)c1ccc2c(c1)nc(Nc1cccc(Cl)c1)c1ccncc12 [CX4945] (first compound 0.08 µM, partner dose 0.4 µM)",210,65.6,211,59.7,61.1,240,65.1,20.8
"CC1(C)CCC(c2ccc(Cl)cc2)=C(CN2CCN(c3ccc(C(=O)NS(=O)(=O)c4ccc(N[C@H](CCN5CCOCC5)CSc5ccccc5)c(S(=O)(=O)C(F)(F)F)c4)cc3)CC2)C1 + C=C(c1ccc(C(=O)O)cc1)c1cc2c(cc1C)C(C)(C)CCC2(C)C [Bexarotene] (first compound 0.4 µM, partner dose 2 µM)",338,746,168,112,192,202,112,144
"Cn1sc(=O)n(Cc2ccccc2)c1=O + OCc1c[nH]c2ccccc12 [Indole-3-carbinol] (first compound 0.4 µM, partner dose 0.8 µM)",152,106,100,36.2,23.2,179,70.4,48.7
"NC1(c2ccc(-c3nc4ccn5c(=O)[nH]nc5c4cc3-c3ccccc3)cc2)CCC1 + C#Cc1cccc(Nc2ncnc3cc(OCCOC)c(OCCOC)cc23)c1 [erlotinib] (first compound 0.4 µM, partner dose 0.8 µM)",65.3,45.8,79.6,170,192,153,27.7,156
"C[C@]1(O)C[C@@H](c2nc(-c3ccc4ccc(-c5ccccc5)nc4c3)c3c(N)nccn32)C1 + Cn1nnc2c(C(N)=O)ncn2c1=O [temozolomide] (first compound 0.4 µM, partner dose 2 µM)",42.1,165,79,76.9,95.7,41.7,63.5,173
"CC(=O)O[C@@]12CO[C@@H]1C[C@H](O)[C@@]1(C)C(=O)[C@H](O)C3=C(C)[C@@H](OC(=O)[C@H](O)[C@@H](NC(=O)OC(C)(C)C)c4ccccc4)C[C@@](O)([C@@H](OC(=O)c4ccccc4)[C@H]21)C3(C)C [Docetaxel] + CS(=O)(=O)CCNCc1ccc(-c2ccc3ncnc(Nc4ccc(OCc5cccc(F)c5)c(Cl)c4)c3c2)o1 [lapatinib] (first compound 0.0001 µM, partner dose 0.8 µM)",582,1140,294,216,449,493,435,55.3
"CCCCCCCCc1ccc(CCC(N)(CO)CO)cc1 [fingolimod] + Cn1c(=O)n(-c2ccc(C(C)(C)C#N)cc2)c2c3cc(-c4cnc5ccccc5c4)ccc3ncc21 [NVP-BEZ235] (first compound 2 µM, partner dose 0.004 µM)",118,115,183,99.1,65.3,69.1,101,282
"CS(=O)(=O)c1ccc(C(=O)Nc2ccc(Cl)c(-c3ccccn3)c2)c(Cl)c1 [vismodegib] + COCC[n+]1c2c(n(Cc3cnccn3)c1C)C(=O)c1ccccc1C2=O [YM155] (first compound 1 µM, partner dose 0.0004 µM)",4510,199,51.3,100,57.9,57.8,80.3,52.2
"CC1(C)CCC(c2ccc(Cl)cc2)=C(CN2CCN(c3ccc(C(=O)NS(=O)(=O)c4ccc(N[C@H](CCN5CCOCC5)CSc5ccccc5)c(S(=O)(=O)C(F)(F)F)c4)cc3)CC2)C1 + CNC(=O)c1cc(Oc2ccc(NC(=O)Nc3ccc(Cl)c(C(F)(F)F)c3)cc2)ccn1 [sorafenib] (first compound 0.4 µM, partner dose 0.4 µM)",399,412,45.3,65.4,96.1,172,91.3,95.8
"CS(=O)(=O)c1ccc(C(=O)Nc2ccc(Cl)c(-c3ccccn3)c2)c(Cl)c1 [vismodegib] + COc1ccc(Cl)c(Nc2nc3ccccc3nc2NS(=O)(=O)c2cccc(NC(=O)C(C)(C)N)c2)c1 [XL147] (first compound 1 µM, partner dose 0.8 µM)",161,46.1,88.2,98,89.5,23.6,57.6,94.5
"CS(=O)(=O)c1ccc(C(=O)Nc2ccc(Cl)c(-c3ccccn3)c2)c(Cl)c1 [vismodegib] + C[C@]1(c2nc3c(C(N)=O)cccc3[nH]2)CCCN1 [Veliparib] (first compound 1 µM, partner dose 1.4 µM)",74.1,48.2,124,63.1,40.1,126,21.5,111
